# Assay results published in PMC8384837.
# Numbering of substitutions follows the chain as printed. The list shows a part of the results. At the low end of the ranking, values are background and their order means little.
# Target: T1, PUM1 PUF domain R2-VFQ R3-THE R4-TFR N899V + Y900F + C935T + R936H + Q939E + N971T + H972F + Q975R (UniProt Q14671)
# T1 sequence: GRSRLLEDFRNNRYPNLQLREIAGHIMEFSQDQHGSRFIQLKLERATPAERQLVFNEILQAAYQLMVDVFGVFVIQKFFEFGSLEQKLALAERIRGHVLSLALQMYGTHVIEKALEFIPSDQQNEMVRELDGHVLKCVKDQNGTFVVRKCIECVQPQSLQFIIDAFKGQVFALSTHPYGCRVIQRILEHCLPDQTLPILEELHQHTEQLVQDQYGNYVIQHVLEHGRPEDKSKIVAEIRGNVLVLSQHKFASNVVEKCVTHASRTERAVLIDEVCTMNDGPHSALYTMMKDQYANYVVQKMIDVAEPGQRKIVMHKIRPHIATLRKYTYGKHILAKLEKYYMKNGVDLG
# Conditions: yeast three-hybrid, YBZ-1, SC-Leu-His + 0.5 mM 3-AT, 4 days
row,Sequence,binding signal (log2 enrichment (interaction score))
1,GGCUAGAACUAGUGGAUCCCCCGGCGCCCGGCGGCUCGAGCCCGGGUAAGGUGAGGUUGUCUGCAUGCCGCCGGGCGCCAUGCCUGCAGGUCGACUCUAGAAAACAUG,-5.87
2,GGCUAGAACUAGUGGAUCCCCCGGCGCCCGGCGGCUCGAGCCCGGGUAAGUUAACUUCGUCUGCAUGCCGCCGGGCGCCAUGCCUGCAGGUCGACUCUAGAAAACAUG,-5.26
3,GGCUAGAACUAGUGGAUCCCCCGGCGCCCGGCGGCUCGAGCCCGGGUAAGUCGAAGGAGUCUGCAUGCCGCCGGGCGCCAUGCCUGCAGGUCGACUCUAGAAAACAUG,-5.13
4,GGCUAGAACUAGUGGAUCCCCCGGCGCCCGGCGGCUCGAGCCCGGGUAAGGUUGCGAAGUCUGCAUGCCGCCGGGCGCCAUGCCUGCAGGUCGACUCUAGAAAACAUG,-6.1
5,GGCUAGAACUAGUGGAUCCCCCGGCGCCCGGCGGCUCGAGCCCGGGUAAGUGGCCUGAGUCUGCAUGCCGCCGGGCGCCAUGCCUGCAGGUCGACUCUAGAAAACAUG,-2.66
6,GGCUAGAACUAGUGGAUCCCCCGGCGCCCGGCGGCUCGAGCCCGGGUAAGUGCACGCAGUCUGCAUGCCGCCGGGCGCCAUGCCUGCAGGUCGACUCUAGAAAACAUG,-5.46
7,GGCUAGAACUAGUGGAUCCCCCGGCGCCCGGCGGCUCGAGCCCGGGUAAGUUUACGCGGUCUGCAUGCCGCCGGGCGCCAUGCCUGCAGGUCGACUCUAGAAAACAUG,-5.52
8,GGCUAGAACUAGUGGAUCCCCCGGCGCCCGGCGGCUCGAGCCCGGGUAAGUUGAAGACGUCUGCAUGCCGCCGGGCGCCAUGCCUGCAGGUCGACUCUAGAAAACAUG,-5.75
9,GGCUAGAACUAGUGGAUCCCCCGGCGCCCGGCGGCUCGAGCCCGGGUAAGCGAAUGUAGUCUGCAUGCCGCCGGGCGCCAUGCCUGCAGGUCGACUCUAGAAAACAUG,-5.72
10,GGCUAGAACUAGUGGAUCCCCCGGCGCCCGGCGGCUCGAGCCCGGGUAAGUGACAGAAGUCUGCAUGCCGCCGGGCGCCAUGCCUGCAGGUCGACUCUAGAAAACAUG,-5.3
11,GGCUAGAACUAGUGGAUCCCCCGGCGCCCGGCGGCUCGAGCCCGGGUAAGGUCGAGUAGUCUGCAUGCCGCCGGGCGCCAUGCCUGCAGGUCGACUCUAGAAAACAUG,-5.99
12,GGCUAGAACUAGUGGAUCCCCCGGCGCCCGGCGGCUCGAGCCCGGGUAAGCAUAGGGGGUCUGCAUGCCGCCGGGCGCCAUGCCUGCAGGUCGACUCUAGAAAACAUG,-5.07
13,GGCUAGAACUAGUGGAUCCCCCGGCGCCCGGCGGCUCGAGCCCGGGUAAGCCUAUGGGGUCUGCAUGCCGCCGGGCGCCAUGCCUGCAGGUCGACUCUAGAAAACAUG,< -6.45
14,GGCUAGAACUAGUGGAUCCCCCGGCGCCCGGCGGCUCGAGCCCGGGUAAGUUAACCUCGUCUGCAUGCCGCCGGGCGCCAUGCCUGCAGGUCGACUCUAGAAAACAUG,-5.54
15,GGCUAGAACUAGUGGAUCCCCCGGCGCCCGGCGGCUCGAGCCCGGGUAAGUAUAAGAGGUCUGCAUGCCGCCGGGCGCCAUGCCUGCAGGUCGACUCUAGAAAACAUG,-5.06
16,GGCUAGAACUAGUGGAUCCCCCGGCGCCCGGCGGCUCGAGCCCGGGUAAGUUACCUCCGUCUGCAUGCCGCCGGGCGCCAUGCCUGCAGGUCGACUCUAGAAAACAUG,-3.29
17,GGCUAGAACUAGUGGAUCCCCCGGCGCCCGGCGGCUCGAGCCCGGGUAAGAUUAUUUAGUCUGCAUGCCGCCGGGCGCCAUGCCUGCAGGUCGACUCUAGAAAACAUG,-5.29
18,GGCUAGAACUAGUGGAUCCCCCGGCGCCCGGCGGCUCGAGCCCGGGUAAGUUAAAUACGUCUGCAUGCCGCCGGGCGCCAUGCCUGCAGGUCGACUCUAGAAAACAUG,-5.71
19,GGCUAGAACUAGUGGAUCCCCCGGCGCCCGGCGGCUCGAGCCCGGGUAAGUUGCUGUCGUCUGCAUGCCGCCGGGCGCCAUGCCUGCAGGUCGACUCUAGAAAACAUG,-6.02
20,GGCUAGAACUAGUGGAUCCCCCGGCGCCCGGCGGCUCGAGCCCGGGUAAGGGUACGAUGUCUGCAUGCCGCCGGGCGCCAUGCCUGCAGGUCGACUCUAGAAAACAUG,-3.79
21,GGCUAGAACUAGUGGAUCCCCCGGCGCCCGGCGGCUCGAGCCCGGGUAAGGCCAGGUCGUCUGCAUGCCGCCGGGCGCCAUGCCUGCAGGUCGACUCUAGAAAACAUG,-5.47
22,GGCUAGAACUAGUGGAUCCCCCGGCGCCCGGCGGCUCGAGCCCGGGUAAGAUUAAAUAGUCUGCAUGCCGCCGGGCGCCAUGCCUGCAGGUCGACUCUAGAAAACAUG,< -5.7
23,GGCUAGAACUAGUGGAUCCCCCGGCGCCCGGCGGCUCGAGCCCGGGUAAGGUUGACACGUCUGCAUGCCGCCGGGCGCCAUGCCUGCAGGUCGACUCUAGAAAACAUG,-5.11

# Target: T2, PUM1 PUF domain R3-THE R4-TFR C935T + R936H + Q939E + N971T + H972F + Q975R (UniProt Q14671)
# T2 sequence: T1 sequence with V72N, F73Y
# Conditions: yeast three-hybrid, YBZ-1, SC-Leu-His + 0.5 mM 3-AT, 4 days
row,Sequence,binding signal (log2 enrichment (interaction score))
1,GGCUAGAACUAGUGGAUCCCCCGGCGCCCGGCGGCUCGAGCCCGGGUAAGUUUACCAAGUCUGCAUGCCGCCGGGCGCCAUGCCUGCAGGUCGACUCUAGAAAACAUG,-6.89
2,GGCUAGAACUAGUGGAUCCCCCGGCGCCCGGCGGCUCGAGCCCGGGUAAGAUAACGAGGUCUGCAUGCCGCCGGGCGCCAUGCCUGCAGGUCGACUCUAGAAAACAUG,< -7.09
3,GGCUAGAACUAGUGGAUCCCCCGGCGCCCGGCGGCUCGAGCCCGGGUAAGUUUACGCAGUCUGCAUGCCGCCGGGCGCCAUGCCUGCAGGUCGACUCUAGAAAACAUG,-6.38
4,GGCUAGAACUAGUGGAUCCCCCGGCGCCCGGCGGCUCGAGCCCGGGUAAGCGAAUGUAGUCUGCAUGCCGCCGGGCGCCAUGCCUGCAGGUCGACUCUAGAAAACAUG,-5.84
5,GGCUAGAACUAGUGGAUCCCCCGGCGCCCGGCGGCUCGAGCCCGGGUAAGGUCGAGUAGUCUGCAUGCCGCCGGGCGCCAUGCCUGCAGGUCGACUCUAGAAAACAUG,-7.29
6,GGCUAGAACUAGUGGAUCCCCCGGCGCCCGGCGGCUCGAGCCCGGGUAAGGCCAGGUCGUCUGCAUGCCGCCGGGCGCCAUGCCUGCAGGUCGACUCUAGAAAACAUG,-7.36
